Data on 56 compounds can be found in the supplement of paper PMC6289059.

Some of the results follow. Many values rest on one well or one pass, so single values are uncertain.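 The assay uses human stem cell-derived hepatocyte-like cells whose DGUOK gene was disrupted by CRISPR, modeling liver mtDNA depletion syndrome. ATP signals were scored within each plate, and any drug with a score of at least 3 was called a primary hit.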 Residues, ends and D or L forms follow the SMILES beside them.

For this assay, the system named is DGUOK Δ14/Δ5 iPSC-derived hepatocyte-like cells (SV20). The experiment in a line: ATP level (CellTiter-Glo luminescence) Z score relative to plate distribution, under 2-DG glycolysis block; higher = more cellular ATP (rescue of mitochondrial ATP production). As to conditions: 5 µM; treatment time: day 15 to day 20 of differentiation (5 days); 2-deoxy-D-glucose: 20 mM for 24 h before assay. A general note: ATP-based viability assays read luminescence as a measure of living cells.
For the compound `NCCCC(O)(P(=O)(O)O)P(=O)(O)O`, the ATP level was inactive: -1.51.

Consider `Nc1ccc(S(=O)(=O)Nc2cnc3ccccc3n2)cc1`, for which the ATP level was inactive: -14.

For `O=C(O)CN(CC(=O)O)Cc1cc2c(cc1O)Oc1cc(O)c(CN(CC(=O)O)CC(=O)O)cc1C21OC(=O)c2ccccc21`, the ATP level was inactive: -1.03.

In the case of `[O-][n+]1cccc(CO)c1`, the ATP level was inactive: 0.859.

As to `COc1ccc(C[C@H](N)C(=O)N[C@H]2[C@@H](O)[C@H](n3cnc4c(N(C)C)ncnc43)O[C@@H]2CO)cc1`, the ATP level is inactive: -0.197.

In the case of `Cc1ccnc(NS(=O)(=O)c2ccc(N)cc2)n1`, the ATP level was inactive: 0.791.

With `O=c1ccn([C@@H]2O[C@H](CO)[C@@H](O)[C@H]2O)c(=O)[nH]1`, the ATP level was inactive: -0.142.

`C[C@H](Cn1cnc2c(N)ncnc21)OCP(=O)(O)O`: the ATP level is inactive: -5.74.

On to `CCCCNc1cc(C(=O)O)cc(S(N)(=O)=O)c1Oc1ccccc1`, for which the ATP level was inactive: 1.99.

Consider `O=c1c(O)c(-c2ccc(O)cc2)oc2ccccc12`, for which the ATP level was inactive: 0.617.

Consider `CC(=O)Oc1cc2c(c(C)c1OC(C)=O)CC=C1[C@@]2(C)CC[C@@]2(C)C3C[C@](C)(C(=O)O)CC[C@]3(C)CC[C@]12C` (stereo partly specified), for which the ATP level is inactive: -11.5.

As for `CC(=O)Oc1ccccc1C(=O)Oc1ccccc1C(=O)O`, the ATP level is inactive: -0.648.

`COc1cc2c(cc1-c1coc3c4c(ccc3c1=O)OC(C)(C)C=C4)OCO2`: the ATP level was inactive: 1.27.

In the case of `CCOC(=O)c1c(C)cc(O)c(C=O)c1O`, the ATP level was inactive: -1.58.

Turning to `CCN(CC)CCOC(=O)c1ccc(N)cc1`, the ATP level is inactive: -1.23.

As to `CC[C@H](C)C(=O)O[C@H]1C[C@@H](C)C=C2C=C[C@H](C)[C@H](CC[C@@H]3C[C@@H](O)CC(=O)O3)[C@H]21`, the ATP level is inactive: 2.66.

In the case of `Cc1c(C)c2c(c(C)c1O)CCC(C)(C(=O)O)O2` (stereo unspecified), the ATP level is inactive: -0.853.

`COc1ccc(-c2coc3c4c(c(CC=C(C)C)c(O)c3c2=O)OC(C)(C)C=C4)cc1`: the ATP level is inactive: 2.86.

With `CC(C)C[C@H](N)C(=O)N[C@@H](C)C(=O)O` (H-Leu-Ala-OH), the ATP level was inactive: 1.49.

Regarding `Oc1cccc2[nH]ccc12`, the ATP level is active: 3.13.

As to `O=C1CCC[C@@H]2[C@H]3CCC[N+]4([O-])CCC[C@@H](CN12)[C@@H]34` (stereo partly specified), the ATP level was inactive: -1.46.

With `CC(=O)N[C@@H](CS)C(=O)O`, the ATP level was inactive: 0.752.

For `CC(=O)O[C@H]1C[C@@]2(C)[C@@H](C[C@@H](O)[C@H]3[C@@]4(C)CC[C@@H](O)[C@@H](C)[C@@H]4CC[C@@]32C)/C1=C(\CCC=C(C)C)C(=O)O`, the ATP level was inactive: 2.27.

Regarding `COc1cccc(-c2cc(=O)c3cc(OC)ccc3o2)c1`, the ATP level was inactive: 1.41.

As for `COc1cc(C2Oc3cc([C@H]4Oc5cc(O)cc(O)c5C(=O)[C@@H]4O)ccc3OC2CO)ccc1O` (stereo partly specified), the ATP level was inactive: 0.166.

For the compound `CC(C)CCCC(C)N` (stereo unspecified), the ATP level was inactive: -17.

For `O=c1cc(-c2ccccc2)oc2cc(O)c(O)c(O)c12`, the ATP level is inactive: -0.456.

For the compound `CC(C)[C@@H]1CC[C@@H](C)C[C@H]1O`, the ATP level is inactive: -0.37.

Take `NS(=O)(=O)c1cc2c(cc1Cl)N=C(CSCc1ccccc1)NS2(=O)=O`: the ATP level was inactive: 0.505.

`CC(=O)OC/C=C(C)/C=C/C=C(C)/C=C/C1=C(C)CCCC1(C)C`: the ATP level was inactive: -1.63.

As for `O=C1C(CC[S+]([O-])c2ccccc2)C(=O)N(c2ccccc2)N1c1ccccc1` (stereo unspecified), the ATP level is inactive: 1.47.

In the case of `CCC[C@H](N[C@@H](C)C(=O)N1[C@H](C(=O)O)C[C@@H]2CCCC[C@@H]21)C(=O)O`, the ATP level is inactive: 2.34.

Consider `CC(C)c1ccc2c(c1)CCC1C(C)(C(N)=O)CCCC21C` (stereo unspecified), for which the ATP level is inactive: 2.23.

On to `CC(=O)Oc1c(C)cccc1C(=O)O`, for which the ATP level was inactive: 1.31.

For `N=c1ccn2c(n1)O[C@H]1[C@H](O)[C@@H](CO)O[C@H]12`, the ATP level is inactive: 2.81.

With `O=C(O)c1cc(=O)c2cccc(O)c2[nH]1`, the ATP level was inactive: -0.147.

For the compound `O=c1[nH]cc(F)c(=O)[nH]1`, the ATP level is inactive: 2.53.

As for `CCOc1cc(NC(C)=O)ccc1C(=O)OC`, the ATP level is inactive: 2.29.

`C[C@]12C=CC(=O)C=C1CC[C@@H]1[C@@H]2[C@@H](O)C[C@@]2(C)[C@H]1CC[C@]2(O)C(=O)CO`: the ATP level was inactive: 2.67.

Turning to `CC(C)Cc1ccc([C@H](C)C(=O)O)cc1`, the ATP level is inactive: 1.4.

As to `CS(=O)(=O)c1ccc([C@@H](O)[C@@H](CO)NC(=O)C(Cl)Cl)cc1`, the ATP level was inactive: -35.4.

Regarding `O=C(Nc1cc(Cl)cc(Cl)c1O)c1c(O)c(Cl)cc(Cl)c1Cl`, the ATP level was inactive: 0.67.

`O=C(O)Cc1ccccc1Nc1c(Cl)cccc1Cl`: the ATP level was active: 3.46.

With `C[C@@H](c1ncncc1F)[C@](O)(Cn1cncn1)c1ccc(F)cc1F`, the ATP level is inactive: 1.95.

`C[C@@H]1O[C@@H](Oc2c(-c3ccc(O)c(O)c3)oc3cc(O)cc(O)c3c2=O)[C@H](O)[C@H](O)[C@H]1O`: the ATP level is inactive: -1.53.

Regarding `C[C@@H]1CC(=O)NN=C1c1ccc(NN=C(C#N)C#N)cc1`, the ATP level is inactive: 2.51.

Regarding `CCC(=O)O[C@H](CC(=O)O)C[N+](C)(C)C`, the ATP level is inactive: 0.708.

As for `Cc1cc(OC(=O)c2c(C)cc(O)cc2O)cc(O)c1C(=O)O`, the ATP level is inactive: 0.323.

Consider `Cc1cc(C(C)(C)CC(C)(C)C)ccc1OCCOCC[N+](C)(C)Cc1ccccc1`, for which the ATP level is inactive: -36.6.

Turning to `Cc1cc(NC(=O)C2=C(O)c3ccccc3S(=O)(=O)N2C)no1`, the ATP level was active: 8.25.

As for `CO[C@@]1(NC(=O)C2SC(=C(C(N)=O)C(=O)O)S2)C(=O)N2C(C(=O)O)=C(CSc3nnnn3C)CS[C@@H]21` (stereo partly specified), the ATP level was inactive: -9.8.

On to `CN(C)CCCN1c2ccccc2CCc2ccc(Cl)cc21`, for which the ATP level was inactive: -12.2.

Consider `C#C[C@]1(OC(C)=O)CC[C@H]2[C@@H]3CCC4=C[C@@H](OC(C)=O)CC[C@@H]4[C@H]3CC[C@@]21C`, for which the ATP level is inactive: 2.74.

With `C[C@@H]1CC[C@@]2(OC1)O[C@H]1C[C@H]3[C@@H]4CC[C@H]5C[C@@H](O)CC[C@]5(C)[C@H]4CC[C@]3(C)[C@H]1[C@@H]2C`, the ATP level is inactive: -0.921.

For `Nc1ccc(S(=O)(=O)Nc2ncccn2)cc1`, the ATP level was inactive: 0.509.

As for `CO[C@@]1(NC(=O)C(C(=O)O)c2ccc(O)cc2)C(=O)N2C(C(=O)O)=C(CSc3nnnn3C)CO[C@@H]21` (stereo partly specified), the ATP level was inactive: 2.12.
